Results from publication PMC3222648, “Inotropic Action of the Puberty Hormone Kisspeptin in Rat, Mouse and Human: Cardiovascular Distribution and Characteristics of the Kisspeptin Receptor” (PLoS ONE, 2011).

How the values were obtained:
[1] = Radioimmunoassay of kisspeptin-LI in human heart
[2] = cited from earlier work

kisspeptin: Kisspeptin, or KP-54; also used generically for the endogenous peptides and kisspeptin-like immunoreactivity (GTSLSPPPESSGSPQQPGLSAPHSRQIPAPQGAVLVQREKDLPNYNWNSFGLRF; Metastin; UniProt Q15726 68-121, looked up)
kisspeptin-LI level in myocardium ([1]; left ventricle, control vs DCM vs IHD (P>0.05)): no significant difference
kisspeptin-LI level in myocardium ([1]; right atria, patients with dilated cardiomyopathy vs control (n = 4)): not different
kisspeptin-LI level in myocardium ([1]; right atria, patients with ischaemic heart disease vs control (P<0.05, ANOVA)): significant reduction
increase in plasma concentration in pregnancy ([2]; above normal levels, pregnancy, ref [48]): 10000 fold
circulating level ([2]; human, ref [31]): 0.83 ± 0.19 pM
